Results as given in PMC8850591.
Substitutions are numbered along the chain they refer to. Results are given in words; binding and its absence hold for the method and conditions named. Binding seen in cells or lysates may run through a third protein. Some results given as binding are weak or reduced against the parent protein; the word gives no strength. For some assays here: Tags and fused reporters may be left off the sequences shown.

Amino acid sequences for entries named in this document (tags omitted). Residues count along the entry.
UniProt Q07021, residues 74-282: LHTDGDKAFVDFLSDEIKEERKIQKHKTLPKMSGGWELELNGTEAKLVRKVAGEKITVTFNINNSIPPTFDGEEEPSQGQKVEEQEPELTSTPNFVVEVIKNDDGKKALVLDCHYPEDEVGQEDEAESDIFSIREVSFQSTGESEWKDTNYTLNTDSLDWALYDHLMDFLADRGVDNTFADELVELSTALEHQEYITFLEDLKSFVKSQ
UniProt P05198: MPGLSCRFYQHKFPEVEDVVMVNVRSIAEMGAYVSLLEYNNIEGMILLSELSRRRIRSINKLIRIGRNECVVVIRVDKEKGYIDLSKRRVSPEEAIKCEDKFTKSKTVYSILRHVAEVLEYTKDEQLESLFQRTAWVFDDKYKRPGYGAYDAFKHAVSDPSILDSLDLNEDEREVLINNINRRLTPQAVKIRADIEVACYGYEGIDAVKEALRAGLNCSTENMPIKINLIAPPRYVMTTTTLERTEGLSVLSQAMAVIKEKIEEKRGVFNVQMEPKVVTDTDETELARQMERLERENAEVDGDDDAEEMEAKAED

Legend:
[1] = target: T1, exogenous wild-type CHCHD2 (human) (UniProt Q9Y6H1); assay: co-IP; CHCHD2 KO HeLa cells expressing exogenous CHCHD2 WT, T61I or R145Q, with or without CCCP (8 h in the legend, 12 h in the text); immunoprecipitated with anti-CHCHD2 and protein G magnetic beads, immunoblot
T1 sequence: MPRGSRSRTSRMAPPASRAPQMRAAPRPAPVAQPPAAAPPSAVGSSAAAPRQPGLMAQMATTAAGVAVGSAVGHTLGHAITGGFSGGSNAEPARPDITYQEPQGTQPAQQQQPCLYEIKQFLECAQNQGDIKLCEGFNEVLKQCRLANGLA

[2] = target: T2, FLAG-tagged CHCHD10 WT (human) (UniProt Q8WYQ3); assay: co-IP; CHCHD10 KO HeLa cells expressing FLAG-tagged CHCHD10 WT, S59L or G66V, with or without CCCP (8 h in the legend, 12 h in the text); immunoprecipitated with FLAG M2 resin, immunoblot
T2 sequence: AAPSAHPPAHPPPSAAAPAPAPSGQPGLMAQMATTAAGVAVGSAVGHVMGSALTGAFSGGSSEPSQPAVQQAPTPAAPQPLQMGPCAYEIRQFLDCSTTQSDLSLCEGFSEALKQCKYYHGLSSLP

[3] = target: T3, CHCHD2-R145Q (PD-related mutant) (human) (UniProt Q9Y6H1); assay: co-IP; CHCHD2 KO HeLa cells expressing exogenous CHCHD2 WT, T61I or R145Q, with or without CCCP (8 h in the legend, 12 h in the text); immunoprecipitated with anti-CHCHD2 and protein G magnetic beads, immunoblot
T3 sequence: T1 sequence with R145Q

[4] = target: T4, CHCHD2-T61I (PD-related mutant) (human) (UniProt Q9Y6H1); assay: as above
T4 sequence: T1 sequence with T61I

[5] = target: T5, FLAG-tagged CHCHD10-G66V (ALS-related mutant) (human) (UniProt Q8WYQ3); assay: co-IP; CHCHD10 KO HeLa cells expressing FLAG-tagged CHCHD10 WT, S59L or G66V, with or without CCCP (8 h in the legend, 12 h in the text); immunoprecipitated with FLAG M2 resin, immunoblot
T5 sequence: T2 sequence with G50V

[6] = target: T6, FLAG-tagged CHCHD10-S59L (ALS-related mutant) (human) (UniProt Q8WYQ3); assay: as above
T6 sequence: T2 sequence with S43L

Measured: binding

P32, endogenous in HeLa cells (from UniProt Q07021 74-282)
binds: [1] | [2]

eIF2α, endogenous in HeLa cells (from UniProt P05198 1-315)
binds: all assays above
